Assay results taken from patent US20190049459A1 (TOKYO INSTITUTE OF TECHNOLOGY, published 2019).

Amino acid sequences for entries named in this document (tags omitted). Residues count along the entry.
UniProt Q07021, residues 74-282: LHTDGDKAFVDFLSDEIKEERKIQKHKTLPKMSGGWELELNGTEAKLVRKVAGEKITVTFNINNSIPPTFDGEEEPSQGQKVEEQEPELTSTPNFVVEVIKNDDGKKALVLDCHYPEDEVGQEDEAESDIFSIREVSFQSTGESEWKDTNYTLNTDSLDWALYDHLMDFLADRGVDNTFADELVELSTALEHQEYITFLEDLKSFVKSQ

What was measured:
peroxiredoxin = biological target: T1, peroxiredoxin (UniProt Q06830); experiment: anti-FLAG immunoprecipitation, SDS-PAGE; band identified by mass spectrometry as peroxiredoxin
T1 sequence (looked up): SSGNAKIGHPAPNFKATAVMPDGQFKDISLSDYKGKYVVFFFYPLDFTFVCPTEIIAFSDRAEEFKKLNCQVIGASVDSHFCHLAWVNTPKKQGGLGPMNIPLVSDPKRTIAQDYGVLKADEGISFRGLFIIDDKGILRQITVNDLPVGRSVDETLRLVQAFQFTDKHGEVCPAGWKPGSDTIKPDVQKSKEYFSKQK

[1] = biological target: C1QBP (Q Subcomponent Binding Protein) (UniProt Q07021); experiment: anti-FLAG immunoprecipitation, SDS-PAGE; band identified by mass spectrometry as C1QBP
ANT (human) = biological target: T2, ANT (human) (UniProt P05141); experiment: anti-FLAG immunoprecipitation from HEK 293 T lysate, SDS-PAGE; band identified by mass spectrometry (Table 1)
T2 sequence: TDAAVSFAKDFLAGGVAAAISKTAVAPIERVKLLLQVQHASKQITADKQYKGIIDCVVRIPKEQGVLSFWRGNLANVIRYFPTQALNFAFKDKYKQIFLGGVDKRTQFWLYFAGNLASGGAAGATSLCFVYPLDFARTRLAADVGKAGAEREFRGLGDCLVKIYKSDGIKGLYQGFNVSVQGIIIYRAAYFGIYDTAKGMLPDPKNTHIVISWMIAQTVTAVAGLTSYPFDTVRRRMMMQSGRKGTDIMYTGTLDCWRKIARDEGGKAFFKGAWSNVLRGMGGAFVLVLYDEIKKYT

B1: FLAG-tagged ouORF7p (protein derived from ouORF7) (protein, not shown: small tags and cut ends)
chain: MSAGRASGALSRTRTPLEPEPQQKPEPEPNHRCSPLNPGGALARARPPGPHVGTTA
In the case of B1, the binding (peroxiredoxin) is reported as “binds”.

MRKGARRLCPAARVSMERRRPRLLRRRLRQWRWRPFLKKWTSSPPHTGG (peptide, not shown: small tags and cut ends) [FLAG-tagged ouORF21p (protein derived from ouORF21)] was tested, and the binding [1] was “binds”.

B2: FLAG-tagged uORF44p (protein derived from uORF44, an upstream ORF in the mRNA of ARHGEF9) (other, not shown: small tags and cut ends)
chain: MDSLTEQRLTSPNLPAPHLEHYSVLHCTMTLDVQTVVVFAVIVVLLLVNVILMFFLGTR
notes: Expressed from a pcDNA3 FLAG vector in HEK 293 T cells; also called uORF44 protein; mental activity-related protein
With B2 the binding (ANT (human)) was “binds”.

No constants are given. Whether binding was seen depends on the method and setting. In cells and extracts the contact can be indirect. Here binding means that the protein was enriched with, or labelled near, the bait; the list need not be complete. Sequences can lack the tags named with a protein.
